# Measured values taken from PubChem BioAssay AID504327 (National Center for Advancing Translational Sciences (NCATS), 2011).
# Protein sequences, listed by entry. Tags and fused reporters are not part of them.
# UniProt Q92830, whole entry, looked up: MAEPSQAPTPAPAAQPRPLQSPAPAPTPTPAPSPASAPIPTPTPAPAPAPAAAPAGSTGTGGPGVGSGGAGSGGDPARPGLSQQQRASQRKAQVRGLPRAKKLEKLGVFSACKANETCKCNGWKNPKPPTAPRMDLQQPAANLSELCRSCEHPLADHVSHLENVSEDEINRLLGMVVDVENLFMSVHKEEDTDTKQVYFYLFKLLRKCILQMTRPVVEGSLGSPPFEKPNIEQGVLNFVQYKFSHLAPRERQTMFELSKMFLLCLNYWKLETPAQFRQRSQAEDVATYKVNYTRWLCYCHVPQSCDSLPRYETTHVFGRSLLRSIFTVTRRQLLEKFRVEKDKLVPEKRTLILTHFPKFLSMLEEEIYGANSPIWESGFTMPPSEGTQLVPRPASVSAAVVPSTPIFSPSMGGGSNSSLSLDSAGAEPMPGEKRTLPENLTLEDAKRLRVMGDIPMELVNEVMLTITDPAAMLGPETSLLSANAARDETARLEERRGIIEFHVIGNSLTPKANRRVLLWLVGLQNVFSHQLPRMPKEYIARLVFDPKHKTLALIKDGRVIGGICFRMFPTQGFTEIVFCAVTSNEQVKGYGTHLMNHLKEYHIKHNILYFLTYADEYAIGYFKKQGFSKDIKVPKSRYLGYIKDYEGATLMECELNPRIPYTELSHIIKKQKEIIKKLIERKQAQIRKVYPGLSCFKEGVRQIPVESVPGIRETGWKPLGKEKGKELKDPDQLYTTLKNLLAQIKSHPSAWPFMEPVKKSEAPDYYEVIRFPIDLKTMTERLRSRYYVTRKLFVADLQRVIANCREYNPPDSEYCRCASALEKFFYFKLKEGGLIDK
# “And” between values parts separate entries of the source, which are not always exact repeats. Equal values may be shown once. Among all 390,000 compounds or so, about 820 (0.21%) were called active. Inconclusive means that the source gave no clear call. Such entries were picked first, then a sample of the others. Calls come from the whole dose curve; as a rule, active = well fitted inhibition curve with a large enough effect; inconclusive = small, poorly fitted or top-dose-only effect, or another doubt; inactive = no such curve, though single readings can be large or run the other way. A potency beside an inconclusive call is a rough fit, not a confirmed value.
# Target: Histone acetyltransferase KAT2A (Homo sapiens) (UniProt Q92830)
# Assay: qHTS Assay for Inhibitors of GCN5L2
# Conditions: GCN5L2 HAT assay, ThioGlo1 CoA-SH fluorescence; activity change, negative = inhibition: at 58.9 µM (top of the series) unless noted
# Method in brief: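 GCN5L2 (20nM final) in 50mM HEPES, 0.1mM EDTA pH 7.5, 0.01% Tween-20 was preincubated 15 min at room temperature with compound, then given ThioGlo1 (50uM), H3(1-25) peptide (75uM) and acetyl-CoA (70uM); CoA-thiol fluorescence (Ex340/Em540) was read at 0 and 20 min.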
# % is set by controls: 0 for no effect and ±100 for the full control effect; potency is the fitted concentration of half-maximal effect.
Compound,Potency,"activity change, negative = inhibition"
Cc1nnc(NC(=O)CSc2ccc(-c3ccco3)nn2)s1,"inconclusive: 35.5 µM [inhibitor, single point]",
Cc1cc(C(=O)N/N=C2\CC(=O)c3ccccc32)c(C)n1-c1ccc(F)cc1,,inactive: -23.6%
O=C(O)c1cccc(N2C(=O)/C(=C/c3ccc(SCc4ccc(Cl)cc4)o3)SC2=S)c1,active: 22.4 µM,
CCc1c(C2(O)CCCCC2)[nH]c2cnccc12,"inconclusive: 4.47 µM [inhibitor, single point]",
CCOc1ccc(/C=N/NC(=O)C(C)N(c2ccc(OC)cc2)S(C)(=O)=O)cc1 (stereo unspecified),"inconclusive: 6.31 µM [inhibitor, single point]",
COc1ccc(N/C(C)=C/C(=S)Nc2ccccc2)cc1,,inactive: 18%
O=C(CSc1nc(-c2cccs2)nc2cc(=O)[nH]n12)Nc1ccccc1F,,inactive: -1.93%
N#Cc1c(N)n(Cc2ccccc2)c(=O)c2cc([N+](=O)[O-])ccc12,,inactive: -7.32%
Cc1cc(=O)oc2c3c4c(cc12)OCCN4CCC3,"inconclusive: 31.6 µM [inhibitor, partial curve]",
CC(=O)NC12CC3CC(C1)CC(C(=O)Nc1c(C)n(C)n(-c4ccccc4)c1=O)(C3)C2,,inactive: 0.366%
CC(O)c1c(-c2ccccc2)nn(C)c1Cl (stereo unspecified),,inactive: -13.7%
CC1CCC(C(C)C)C(OC(=O)C[n+]2cccc(C(N)=O)c2)C1 (stereo unspecified),"inconclusive: 0.398 µM [inhibitor, full curve]",
Cc1ccc(OCCC(=O)OCC(=O)NC2CCCC2)cc1,"inconclusive: 2.82 µM [inhibitor, single point]",
Cc1cc(N2C(=O)C(O)=C(C(=O)c3ccc(C)o3)C2c2cccc(Oc3ccccc3)c2)no1 (stereo unspecified),,inactive: -0.471%
O=C(COC(=O)C1CC(=O)N(Cc2ccco2)C1)c1ccc(OC(=O)c2ccco2)cc1 (stereo unspecified),"inconclusive: 31.6 µM [inhibitor, single point]",
Cc1cccc(N(C)c2ccc3cc(S(=O)(=O)N4CCCC4)ccc3n2)c1,"inconclusive: 39.8 µM [inhibitor, single point] and inconclusive: 35.5 µM [inhibitor, single point]",
CCCCN1C(=N)N([C@@H](CCC)CN2CCC[C@H]2CN2C(N)=NC[C@H]2CC(C)C)C[C@H]1Cc1ccccc1,,inactive: -1.83%
NC(=O)c1c(NC(=O)Cn2nc(C(=O)O)c3ccccc3c2=O)sc2c1CCC2,"inconclusive: 0.631 µM [inhibitor, single point]",
COc1cc(OC)c2c(O)c3c(c(-c4c5c(c(O)c6c(OC)cc(OC)cc46)CO[C@@H](C)[C@H]5O)c2c1)[C@H](O)[C@H](C)OC3,"inconclusive: 31.6 µM [inhibitor, single point]",
Cc1ccccc1Cc1c(C)nc2nc(SCC(=O)NCCc3ccc(Cl)cc3)nn2c1C,,inactive: -9.49%
O=c1[nH][nH]c(-c2ccccc2)c1C=Nc1cccc(Cl)c1,"inconclusive: 5.62 µM [inhibitor, single point]",
COc1ccc(CCNC(=O)CSc2ccc(-c3ccco3)nn2)cc1,"inconclusive: 0.794 µM [inhibitor, full curve, poor fit]",
Cc1ccc(C(=O)c2cc([N+](=O)[O-])ccc2N2CCCCC2)cc1,,inactive: -7.91%
O=C(NC1(C(F)(F)F)NC(=O)N(Cc2ccco2)C1=O)c1cccs1 (stereo unspecified),,inactive: -8.42%

Compound,Potency,"activity change, negative = inhibition"
O=C(Cc1cc(=O)oc2cc(O)ccc12)NC(Cc1ccc(Cl)cc1)C(=O)O (stereo unspecified),active: 28.2 µM,
COCC(=O)OC/C(O)=C(\C#N)c1nc2ccccc2[nH]1,"inconclusive: 3.16 µM [inhibitor, full curve, poor fit]",
C=CCn1c2ccccc2c(=O)c2cc(C#Cc3ccsc3)ccc21,"inconclusive: 3.55 µM [inhibitor, single point]",
Oc1c(Cl)cc(Cl)c(Cl)c1Cc1c(O)c(Cl)cc(Cl)c1Cl,active: 12.6 µM,
CC1CCCC(NS(=O)(=O)c2cc3c(cc2Cl)NC(=O)CO3)C1C (stereo unspecified),"inconclusive: 3.16 µM [inhibitor, full curve, poor fit]",
CCOC(=O)C(C(=O)OCC)C(Nc1ccc(Br)cc1)c1ccccc1 (stereo unspecified),,inactive: -4.48%
COC(=O)c1ccc(CNC(=O)CSC(C)C(=O)Nc2cc(C)on2)cc1 (stereo unspecified),,inactive: -0.758%
O=C(O)C(S)[C@@H](S)C(=O)O (stereo partly specified),active: 7.08 µM,
CCN(C(=O)c1ccc2c(OC)n(CC)nc2c1)c1ccc(OC)cc1,"inconclusive: 39.8 µM [inhibitor, single point]",
O=C1c2ccccc2C(Nc2cccc(C(F)(F)F)c2)N1Cc1ccco1 (stereo unspecified),,inconclusive: -44.1% [inhibitor]
O=C1CCCC2=C1C(c1ccc(O)c(O)c1)c1c(ccc3ncccc13)N2 (stereo unspecified),"inconclusive: 39.8 µM [inhibitor, single point]",
Fc1cccc(-c2cc3nc(-c4ccccc4)cc(N4CCC5(CC4)OCCO5)n3n2)c1,"inconclusive: 35.5 µM [inhibitor, single point]",
O=C(Cc1ncc(C(F)(F)F)cc1Cl)N1CCN(c2ccccn2)CC1,"inconclusive: 39.8 µM [inhibitor, single point]",
COc1cccc2sc3cc(NCCCN4CCOCC4)ccc3c(=O)c12,"inconclusive: 12.6 µM [inhibitor, partial curve]",
Cc1c(C(=O)N2CCN(c3cccc(Cl)c3)CC2)cccc1[N+](=O)[O-],,inactive: -6.54%
O=C(CSc1ncccn1)NC(=O)NCc1ccco1,,inactive: -12.4%
COc1ccc(/C=C/C(=O)Nc2ccccc2C(=O)O)cc1,,inactive: -11.6%
c1ccc(C(c2nnnn2C2CCCC2)N2CCCCCC2)nc1 (stereo unspecified),,inactive: 0.112%
Cc1nc2ccccn2c1C(=O)N/N=C/c1ccccc1Cl,"inconclusive: 3.16 µM [inhibitor, partial curve]",
CN1CCN(C(=O)C2CCC(=O)N(Cc3cccc(C(F)(F)F)c3)C2)CC1 (stereo unspecified),"inconclusive: 12.6 µM [inhibitor, partial curve]",
O=C(Cn1ncc2c3ccccc3n(Cc3cccc(Cl)c3)c2c1=O)NC1CCCCCC1,"inconclusive: 20 µM [inhibitor, partial curve]",
CNC(=O)c1ccsc1NC(=O)CN1C(=O)CCC1=O,"inconclusive: 31.6 µM [inhibitor, partial curve, poor fit]",
S=C(NCc1ccc(Cl)c(Cl)c1)NCc1ccco1,,inactive: -25.8%
CCN1CCSc2ccc(C(=O)NCc3ccc(OC)cc3)cc21,"inconclusive: 39.8 µM [inhibitor, single point]",

Compound,Potency,"activity change, negative = inhibition"
Cc1ccccc1C(=O)NC(=S)Nc1ccc(S(=O)(=O)N(C)c2ccccc2)cc1,,inactive: -3.15%
CCOc1ccc(CN2CCN(Cc3c[nH]c4ccccc34)CC2)cc1,"inconclusive: 39.8 µM [inhibitor, single point]",
COc1cc(C)c2c(c1C=O)Oc1c(c(C)c(O)c3c1C(O)OC3=O)OC2=O (stereo unspecified),inactive,
COc1cccc(C2=NOC(C(=O)NCCN3CCOCC3)C2)c1 (stereo unspecified),"inconclusive: 0.398 µM [inhibitor, partial curve]",
O=C(COc1ncnc2ccccc12)Nc1cc(S(=O)(=O)N2CCOCC2)ccc1Cl,"inconclusive: 39.8 µM [inhibitor, single point]",
CC(C)(C)c1cc(CCC(=O)N2CCC2)cc(C(C)(C)C)c1O,"inconclusive: 0.562 µM [inhibitor, full curve, poor fit]",
CCOC(=O)Cn1cc(/C=C(\C#N)C(=O)N2CCOCC2)c2ccccc21,"inconclusive: 35.5 µM [inhibitor, single point]",
O=C(Cn1c(=O)n(CC2CCC(C(=O)NCCc3ccccc3)CC2)c(=O)c2ccccc21)Nc1cccc(F)c1 (stereo unspecified),,inactive: -3.99%
Cc1coc2c(C)c3oc(=O)c(CCC(=O)N(C)CC(=O)O)c(C)c3cc12,"inconclusive: 2.51 µM [inhibitor, single point]",
Cc1ccc(-c2ccc(NC(=O)C3C4C=CC(C4)C3C(=O)O)cc2)o1 (stereo unspecified),,inactive: 3.93%
CC(C)[C@H](NC(=O)OCc1ccccc1)C(=O)OCc1cc(=O)oc2cc(O)ccc12,"inconclusive: 0.447 µM [inhibitor, full curve]",
O=C(Nc1ccc(C(=O)N2CCCCC2)cc1)Nc1cccc(Cl)c1,"inconclusive: 0.141 µM [inhibitor, full curve, poor fit]",
Cc1cc(N/N=C/c2ccc3c(c2)OCO3)nc2ccccc12,,inactive: -14%
CCOc1ccc(C(=O)c2cn(CC(=O)Nc3ccc(Cl)cc3)c3cc4c(cc3c2=O)OCCO4)cc1,,inactive: -0.273%
COc1ccccc1NC(=O)c1c(NC(=O)CCC(=O)O)sc2c1CCCCC2,,inactive: 2.72%
O=C(CCCCCCCC(=O)c1ccccc1)c1ccccc1,,inactive: 1.7%
CCOCCCNC(=S)N(CCN(C)C)Cc1cc2cc3c(cc2[nH]c1=O)OCCO3,"inconclusive: 39.8 µM [inhibitor, single point]",
CCOC(=O)C1=C(C)N=c2s/c(=C/c3ccc(OCC(=O)O)cc3)c(=O)n2C1c1ccc(SC)cc1 (stereo unspecified),"inconclusive: 12.6 µM [inhibitor, partial curve]",
COc1ccc(NC(=O)CSc2nc(NS(=O)(=O)c3ccccc3)cc(=O)[nH]2)cc1,"inconclusive: 7.08 µM [inhibitor, partial curve, poor fit]",
CCOc1ccc(N(CC(=O)NCCSCc2ccccc2)S(=O)(=O)c2ccccc2)cc1,"inconclusive: 3.55 µM [inhibitor, full curve, poor fit]",
C=CCc1cccc(/C=N/NC(=O)C[n+]2ccccc2)c1O,,inactive: -0.268%
O=C(CSc1nc(-c2ccccc2Cl)ns1)Nc1ccc2c(c1)OCO2,,inactive: -7.49%
O=C(COc1ccc(Cl)cc1)Nc1ccc(-c2nc3ccccc3s2)c(O)c1,,inactive: 24.1%

# Arranged by molar mass (descending): part of the list above.
Compound,Potency,"activity change, negative = inhibition"
CC(C)[C@H](NC(=O)OCc1ccccc1)C(=O)OCc1cc(=O)oc2cc(O)ccc12,"inconclusive: 0.447 µM [inhibitor, full curve]",
COc1cc(C)c2c(c1C=O)Oc1c(c(C)c(O)c3c1C(O)OC3=O)OC2=O (stereo unspecified),inactive,
CC(C)(C)c1cc(CCC(=O)N2CCC2)cc(C(C)(C)C)c1O,"inconclusive: 0.562 µM [inhibitor, full curve, poor fit]",
